This experiment has as its target T1, GST-FIP3 (UniProt O75154).
T1 sequence: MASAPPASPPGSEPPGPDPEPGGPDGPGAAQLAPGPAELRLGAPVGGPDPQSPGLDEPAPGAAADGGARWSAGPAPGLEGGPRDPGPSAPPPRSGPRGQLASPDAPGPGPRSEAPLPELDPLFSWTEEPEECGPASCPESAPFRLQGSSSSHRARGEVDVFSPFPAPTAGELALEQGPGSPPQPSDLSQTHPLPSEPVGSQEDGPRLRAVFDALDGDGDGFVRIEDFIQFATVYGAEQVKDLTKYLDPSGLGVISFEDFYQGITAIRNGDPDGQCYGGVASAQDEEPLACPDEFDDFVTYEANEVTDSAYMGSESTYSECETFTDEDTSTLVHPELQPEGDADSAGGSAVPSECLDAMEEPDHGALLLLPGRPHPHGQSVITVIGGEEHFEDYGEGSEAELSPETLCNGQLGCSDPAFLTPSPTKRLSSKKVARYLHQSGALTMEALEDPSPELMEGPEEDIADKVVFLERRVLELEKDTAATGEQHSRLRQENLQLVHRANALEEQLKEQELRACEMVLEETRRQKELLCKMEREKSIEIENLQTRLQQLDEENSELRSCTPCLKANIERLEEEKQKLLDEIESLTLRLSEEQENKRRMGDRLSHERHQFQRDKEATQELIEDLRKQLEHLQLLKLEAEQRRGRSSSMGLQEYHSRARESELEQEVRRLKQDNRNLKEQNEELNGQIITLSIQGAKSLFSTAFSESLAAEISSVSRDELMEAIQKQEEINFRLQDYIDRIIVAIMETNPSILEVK
In words: pull-down; GST-FIP3 pull-down of active Rab11 from lysates of keratinocytes transfected with GFP, GFP-Rac^Q61L or GFP-Rac^P29S (50 mM Tris HCl pH 7.4, 100 mM NaCl, 1% NP-40, 10% glycerol, 10 mM MgCl2); only the target purified.

Results are given in words; binding and its absence hold for the method and conditions named. Binding seen in cells or lysates may run through a third protein. Binding can be weak; no strength is given. Tags and fused reporters may be left off the sequences shown.

As to Rab11 (endogenous, keratinocytes), the binding result was “binds”.

Values taken from paper PMC8091128.
